Our source for the binding values is PMC7717573.

The target in assay [1] is wild type hemolytic pneumolysin (Ply-H) (Streptococcus pneumoniae TIGR4 (serotype 4)) (UniProt P0C2J9). Briefly: SDS-PAGE of unboiled samples with immunoblot (SDS-resistant oligomers); purified Ply variant without cells, 5% SDS-PAGE, anti-Ply blot; both purified. For orientation: In western blotting, separated proteins are transferred to a membrane and probed.
Assay [2] concerns the target T1, wild type hemolytic pneumolysin (Ply-H) (Streptococcus pneumoniae TIGR4 (serotype 4)), P0C2J9.
T1 chain: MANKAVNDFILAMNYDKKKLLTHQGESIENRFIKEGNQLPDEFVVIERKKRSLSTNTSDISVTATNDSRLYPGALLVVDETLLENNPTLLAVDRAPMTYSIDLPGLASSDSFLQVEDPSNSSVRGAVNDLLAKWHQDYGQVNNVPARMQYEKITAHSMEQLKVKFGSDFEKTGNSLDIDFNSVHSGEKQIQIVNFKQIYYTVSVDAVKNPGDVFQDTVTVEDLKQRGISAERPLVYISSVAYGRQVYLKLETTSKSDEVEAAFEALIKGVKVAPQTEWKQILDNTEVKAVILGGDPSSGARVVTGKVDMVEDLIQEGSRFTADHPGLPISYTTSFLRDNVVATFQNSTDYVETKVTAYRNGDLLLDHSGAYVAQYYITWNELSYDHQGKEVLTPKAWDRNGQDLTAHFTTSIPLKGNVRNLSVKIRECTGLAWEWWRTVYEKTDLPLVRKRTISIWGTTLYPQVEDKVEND
Briefly: SDS-PAGE of unboiled samples with immunoblot (SDS-resistant oligomers); 10^6 A549 cells incubated with 0.5 ug Ply variant in PBS for 30 min at 37°C, 5% SDS-PAGE without boiling, anti-Ply blot; oligomers on cell membranes; both purified. The conditions noted are these: remark: other sources report otherwise.

For assay [3], the target named is T1, wild type hemolytic pneumolysin (Ply-H) …. Briefly: negative-stain transmission electron microscopy; purified Ply (0.5 uM) incubated with cholesterol:POPC (50 mol% each) liposomes (2 mg/ml) at 37°C for 30 min, stained with 2% phosphotungstic acid; oligomeric rings on membranes; both purified. The conditions noted are these: remark: other sources report otherwise.

These are yes or no findings as the source states them, for the method shown. Some binding calls cover weakened binding; strength is not graded here.

As to “wild type hemolytic pneumolysin (Ply-H) (from UniProt P0C2J9 1-471)”, in assay [1], the binding entry is reported as “no binding (condition: without cells)”.

B1: wild type hemolytic pneumolysin (Ply-H), P0C2J9 1-471 (protein)
chain: T1 chain
For the molecule B1, the binding result in assay [2] and in assay [3] was “binds” in each case.
